Earlier results as cited in article PMC5974124, “Equilibrium Thermodynamics, Formation, and Dissociation Kinetics of Trivalent Iron and Gallium Complexes of Triazacyclononane-Triphosphinate (TRAP) Chelators: Unraveling the Foundations of Highly Selective Ga-68 Labeling” (Frontiers in Chemistry, 2018).

Set-up: method as in Simecek et al., [2013]; Simecek et al., [2014]
Details: threefold stoichiometric excess of Fe^III over chelator, ref Simecek et al., [2013], [2014]; cited from earlier work

Row | SMILES | ^68Ga incorporation in presence of Fe^III
1 | O=C(O)CCP(=O)(O)CN1CCN(CP(=O)(O)CO)CCN(CP(=O)(O)CO)CC1 [NOPO] | did not result in a significant decrease
2 | O=C(O)CN1CCN(CC(=O)O)CCN(CC(=O)O)CC1 [NOTA^3−, 1,4,7-triazacyclononane-1,4,7-triacetic acid] | almost completely inhibited
